Results on 1 substance are retold here after paper PMC12607517.

By UniProt entry, the sequences of proteins in these tests, tags left out.
UniProt Q91VJ4: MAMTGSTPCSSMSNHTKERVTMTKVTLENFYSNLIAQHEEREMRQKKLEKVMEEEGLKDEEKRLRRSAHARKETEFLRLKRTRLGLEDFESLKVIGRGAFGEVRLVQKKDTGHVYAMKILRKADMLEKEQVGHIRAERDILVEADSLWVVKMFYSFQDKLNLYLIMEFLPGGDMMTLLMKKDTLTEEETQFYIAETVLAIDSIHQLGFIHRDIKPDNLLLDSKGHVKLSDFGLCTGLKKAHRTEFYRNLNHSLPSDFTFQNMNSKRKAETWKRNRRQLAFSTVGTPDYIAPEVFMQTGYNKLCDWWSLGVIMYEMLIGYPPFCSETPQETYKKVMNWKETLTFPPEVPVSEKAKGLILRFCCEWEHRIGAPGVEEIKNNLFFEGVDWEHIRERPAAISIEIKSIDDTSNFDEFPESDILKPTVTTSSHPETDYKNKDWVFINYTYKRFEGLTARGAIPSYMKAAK

The assay has as its target T1, FLAG-His-tagged MerTK (mouse) (UniProt Q60805).
T1 sequence: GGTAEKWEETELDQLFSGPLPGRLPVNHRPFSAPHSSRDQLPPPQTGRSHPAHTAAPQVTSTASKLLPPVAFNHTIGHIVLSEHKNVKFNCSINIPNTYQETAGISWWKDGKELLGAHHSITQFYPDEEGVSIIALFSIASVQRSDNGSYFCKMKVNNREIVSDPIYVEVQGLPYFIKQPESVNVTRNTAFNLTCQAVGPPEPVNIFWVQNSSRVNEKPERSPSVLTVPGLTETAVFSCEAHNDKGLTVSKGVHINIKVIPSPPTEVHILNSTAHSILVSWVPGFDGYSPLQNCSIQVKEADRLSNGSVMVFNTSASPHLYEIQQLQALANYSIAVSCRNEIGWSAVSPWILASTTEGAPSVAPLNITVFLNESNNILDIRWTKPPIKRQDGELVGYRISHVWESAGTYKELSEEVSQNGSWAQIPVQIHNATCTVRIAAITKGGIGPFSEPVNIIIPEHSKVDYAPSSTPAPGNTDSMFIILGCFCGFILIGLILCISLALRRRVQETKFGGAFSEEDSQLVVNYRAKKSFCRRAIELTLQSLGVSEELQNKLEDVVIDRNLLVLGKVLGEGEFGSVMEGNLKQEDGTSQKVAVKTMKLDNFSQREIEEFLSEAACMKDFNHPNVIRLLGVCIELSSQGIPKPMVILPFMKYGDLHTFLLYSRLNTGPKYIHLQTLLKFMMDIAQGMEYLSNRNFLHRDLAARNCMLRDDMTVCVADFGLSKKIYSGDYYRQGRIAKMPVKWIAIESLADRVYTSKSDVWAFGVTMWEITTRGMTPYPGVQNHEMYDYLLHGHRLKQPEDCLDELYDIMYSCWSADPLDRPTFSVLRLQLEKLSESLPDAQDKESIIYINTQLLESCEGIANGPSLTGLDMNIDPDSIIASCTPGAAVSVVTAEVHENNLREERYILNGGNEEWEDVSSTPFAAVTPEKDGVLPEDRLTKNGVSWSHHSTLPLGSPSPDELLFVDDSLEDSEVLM
The assay is described as follows: affinity purification with mass spectrometry; FLAG-His-tagged MerTK expressed with Ras (G12V) in NIH-3T3; RIPA lysate; anti-FLAG M2 gel, FLAG peptide elution, then Ni-NTA agarose, imidazole elution; SDS-PAGE, tryptic digestion, MALDI-TOF, Mascot.

No constants are given. Whether binding was seen depends on the method and setting. Binding seen in cells or lysates may run through a third protein. Here binding means that the protein was enriched with, or labelled near, the bait; the list need not be complete. Where a sequence is shown, tags or fusion partners need not be part of it.

On to “STK38 (endogenous, NIH-3T3) (from UniProt Q91VJ4 1-465) (enzyme)”, for which the binding result is on record as “binds”.
